The supplement of paper PMC11546906
Structures can show the parent of a compound that is named as a salt. The list shows a part of the results. Single values are uncertain here, since repeats match poorly.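 A screen tested FDA-approved drugs combined with one-eighth-MIC colistin against a clinical mcr-1-positive, multidrug-resistant E. coli isolate, measuring OD600 at 24 h. Controls were untreated bacteria (growth) and broth alone (blank). An OD600 under 0.2 marked a combination as active.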

Test system: Escherichia coli 42 (mcr-1-positive clinical isolate)
Test: OD600 after 24 h growth with compound plus colistin (absorbance units (OD600)); higher = more bacterial growth (less inhibition)
Details: first compound 25 µM; colistin concentration 0.5 ug/mL; incubation time 24 h; 37 °C

| SMILES | OD600 |
| --- | --- |
| Cc1ccccc1C(=O)Nc1ccc(C(=O)N2CCCC(O)c3cc(Cl)ccc32)c(C)c1 (centres undefined) [Tolvaptan] + CCC(C)CCCC(=O)N[C@@H](CCN)C(=O)N[C@H](C(=O)N[C@@H](CCN)C(=O)N[C@H]1CCNC(=O)[C@H]([C@@H](C)O)NC(=O)[C@H](CCN)NC(=O)[C@H](CCN)NC(=O)[C@H](CC(C)C)NC(=O)[C@@H](CC(C)C)NC(=O)[C@H](CCN)NC1=O)[C@@H](C)O [colistin] | inactive: 0.762 |
| CC(C)C(=O)Nc1ccc([N+](=O)[O-])c(C(F)(F)F)c1 [Flutamide] + CCC(C)CCCC(=O)N[C@@H](CCN)C(=O)N[C@H](C(=O)N[C@@H](CCN)C(=O)N[C@H]1CCNC(=O)[C@H]([C@@H](C)O)NC(=O)[C@H](CCN)NC(=O)[C@H](CCN)NC(=O)[C@H](CC(C)C)NC(=O)[C@@H](CC(C)C)NC(=O)[C@H](CCN)NC1=O)[C@@H](C)O [colistin] | inactive: 0.901 |
| Clc1ccc(COC(Cn2ccnc2)c2ccc(Cl)cc2Cl)c(Cl)c1 (centres undefined) [Miconazole] + CCC(C)CCCC(=O)N[C@@H](CCN)C(=O)N[C@H](C(=O)N[C@@H](CCN)C(=O)N[C@H]1CCNC(=O)[C@H]([C@@H](C)O)NC(=O)[C@H](CCN)NC(=O)[C@H](CCN)NC(=O)[C@H](CC(C)C)NC(=O)[C@@H](CC(C)C)NC(=O)[C@H](CCN)NC1=O)[C@@H](C)O [colistin] | active: 0.037 |
| CCN(CC)CC#CCOC(=O)C(O)(c1ccccc1)C1CCCCC1 (centres undefined) [Oxybutynin] + CCC(C)CCCC(=O)N[C@@H](CCN)C(=O)N[C@H](C(=O)N[C@@H](CCN)C(=O)N[C@H]1CCNC(=O)[C@H]([C@@H](C)O)NC(=O)[C@H](CCN)NC(=O)[C@H](CCN)NC(=O)[C@H](CC(C)C)NC(=O)[C@@H](CC(C)C)NC(=O)[C@H](CCN)NC1=O)[C@@H](C)O [colistin] | inactive: 1.04 |
| CN1CCN(C2=Nc3ccccc3Oc3ccc(Cl)cc32)CC1 [Loxapine succinate] + CCC(C)CCCC(=O)N[C@@H](CCN)C(=O)N[C@H](C(=O)N[C@@H](CCN)C(=O)N[C@H]1CCNC(=O)[C@H]([C@@H](C)O)NC(=O)[C@H](CCN)NC(=O)[C@H](CCN)NC(=O)[C@H](CC(C)C)NC(=O)[C@@H](CC(C)C)NC(=O)[C@H](CCN)NC1=O)[C@@H](C)O [colistin] | inactive: 0.734 |
| O=c1[nH]c(=O)n([C@H]2C[C@H](O)[C@@H](CO)O2)cc1I [Idoxuridine] + CCC(C)CCCC(=O)N[C@@H](CCN)C(=O)N[C@H](C(=O)N[C@@H](CCN)C(=O)N[C@H]1CCNC(=O)[C@H]([C@@H](C)O)NC(=O)[C@H](CCN)NC(=O)[C@H](CCN)NC(=O)[C@H](CC(C)C)NC(=O)[C@@H](CC(C)C)NC(=O)[C@H](CCN)NC1=O)[C@@H](C)O [colistin] | inactive: 1.28 |
| NC(=O)N1c2ccccc2C=Cc2ccccc21 [Carbamazepine] + CCC(C)CCCC(=O)N[C@@H](CCN)C(=O)N[C@H](C(=O)N[C@@H](CCN)C(=O)N[C@H]1CCNC(=O)[C@H]([C@@H](C)O)NC(=O)[C@H](CCN)NC(=O)[C@H](CCN)NC(=O)[C@H](CC(C)C)NC(=O)[C@@H](CC(C)C)NC(=O)[C@H](CCN)NC1=O)[C@@H](C)O [colistin] | inactive: 0.843 |
| C[N+](C)(C)CCO.[Cl-] [Choline chloride] + CCC(C)CCCC(=O)N[C@@H](CCN)C(=O)N[C@H](C(=O)N[C@@H](CCN)C(=O)N[C@H]1CCNC(=O)[C@H]([C@@H](C)O)NC(=O)[C@H](CCN)NC(=O)[C@H](CCN)NC(=O)[C@H](CC(C)C)NC(=O)[C@@H](CC(C)C)NC(=O)[C@H](CCN)NC1=O)[C@@H](C)O [colistin] | inactive: 0.983 |
| COc1ccc2cc([C@H](C)C(=O)O)ccc2c1 [Naproxen] + CCC(C)CCCC(=O)N[C@@H](CCN)C(=O)N[C@H](C(=O)N[C@@H](CCN)C(=O)N[C@H]1CCNC(=O)[C@H]([C@@H](C)O)NC(=O)[C@H](CCN)NC(=O)[C@H](CCN)NC(=O)[C@H](CC(C)C)NC(=O)[C@@H](CC(C)C)NC(=O)[C@H](CCN)NC1=O)[C@@H](C)O [colistin] | inactive: 0.918 |
| CCCC(=O)Nc1ccc(OCC(O)CNC(C)C)c(C(C)=O)c1 (centres undefined) [Acebutolol hydrochloride] + CCC(C)CCCC(=O)N[C@@H](CCN)C(=O)N[C@H](C(=O)N[C@@H](CCN)C(=O)N[C@H]1CCNC(=O)[C@H]([C@@H](C)O)NC(=O)[C@H](CCN)NC(=O)[C@H](CCN)NC(=O)[C@H](CC(C)C)NC(=O)[C@@H](CC(C)C)NC(=O)[C@H](CCN)NC1=O)[C@@H](C)O [colistin] | inactive: 1.06 |
| COc1ccc([C@@H]2Sc3ccccc3N(CCN(C)C)C(=O)[C@@H]2OC(C)=O)cc1 [Diltiazem hydrochloride] + CCC(C)CCCC(=O)N[C@@H](CCN)C(=O)N[C@H](C(=O)N[C@@H](CCN)C(=O)N[C@H]1CCNC(=O)[C@H]([C@@H](C)O)NC(=O)[C@H](CCN)NC(=O)[C@H](CCN)NC(=O)[C@H](CC(C)C)NC(=O)[C@@H](CC(C)C)NC(=O)[C@H](CCN)NC1=O)[C@@H](C)O [colistin] | inactive: 0.935 |
| c1cnc2cc3c(cc2n1)[C@@H]1CNC[C@H]3C1 [Varenicline Tartrate] + CCC(C)CCCC(=O)N[C@@H](CCN)C(=O)N[C@H](C(=O)N[C@@H](CCN)C(=O)N[C@H]1CCNC(=O)[C@H]([C@@H](C)O)NC(=O)[C@H](CCN)NC(=O)[C@H](CCN)NC(=O)[C@H](CC(C)C)NC(=O)[C@@H](CC(C)C)NC(=O)[C@H](CCN)NC1=O)[C@@H](C)O [colistin] | inactive: 0.879 |
| CC[C@]1(O)C[C@H]2CN(CCc3c([nH]c4ccccc34)[C@@](C(=O)OC)(c3cc4c(cc3OC)N(C=O)[C@H]3[C@@](O)(C(=O)OC)[C@H](OC(C)=O)[C@]5(CC)C=CCN6CC[C@]43[C@@H]65)C2)C1 [Vincristine sulfate] + CCC(C)CCCC(=O)N[C@@H](CCN)C(=O)N[C@H](C(=O)N[C@@H](CCN)C(=O)N[C@H]1CCNC(=O)[C@H]([C@@H](C)O)NC(=O)[C@H](CCN)NC(=O)[C@H](CCN)NC(=O)[C@H](CC(C)C)NC(=O)[C@@H](CC(C)C)NC(=O)[C@H](CCN)NC1=O)[C@@H](C)O [colistin] | inactive: 1.04 |
| CS(=O)(=O)OCCCCOS(C)(=O)=O [Busulfan] + CCC(C)CCCC(=O)N[C@@H](CCN)C(=O)N[C@H](C(=O)N[C@@H](CCN)C(=O)N[C@H]1CCNC(=O)[C@H]([C@@H](C)O)NC(=O)[C@H](CCN)NC(=O)[C@H](CCN)NC(=O)[C@H](CC(C)C)NC(=O)[C@@H](CC(C)C)NC(=O)[C@H](CCN)NC1=O)[C@@H](C)O [colistin] | inactive: 1.17 |
| CO[C@H]1/C=C/O[C@@]2(C)Oc3c(C)c(O)c4c(O)c(c(/C=N/N5CCN(C)CC5)c(O)c4c3C2=O)NC(=O)/C(C)=C\C=C\[C@H](C)[C@H](O)[C@@H](C)[C@@H](O)[C@@H](C)[C@H](OC(C)=O)[C@@H]1C [Rifampicin] + CCC(C)CCCC(=O)N[C@@H](CCN)C(=O)N[C@H](C(=O)N[C@@H](CCN)C(=O)N[C@H]1CCNC(=O)[C@H]([C@@H](C)O)NC(=O)[C@H](CCN)NC(=O)[C@H](CCN)NC(=O)[C@H](CC(C)C)NC(=O)[C@@H](CC(C)C)NC(=O)[C@H](CCN)NC1=O)[C@@H](C)O [colistin] | active: 0.05 |
| Nc1ccc(S(=O)(=O)NC(=O)c2ccccc2)cc1 [Sulfabenzamide] + CCC(C)CCCC(=O)N[C@@H](CCN)C(=O)N[C@H](C(=O)N[C@@H](CCN)C(=O)N[C@H]1CCNC(=O)[C@H]([C@@H](C)O)NC(=O)[C@H](CCN)NC(=O)[C@H](CCN)NC(=O)[C@H](CC(C)C)NC(=O)[C@@H](CC(C)C)NC(=O)[C@H](CCN)NC1=O)[C@@H](C)O [colistin] | inactive: 0.9 |
| CCC(=O)O[C@]1(C(=O)CCl)[C@@H](C)C[C@H]2[C@@H]3CCC4=CC(=O)C=C[C@]4(C)[C@@]3(F)[C@@H](O)C[C@@]21C [Clobetasol propionate] + CCC(C)CCCC(=O)N[C@@H](CCN)C(=O)N[C@H](C(=O)N[C@@H](CCN)C(=O)N[C@H]1CCNC(=O)[C@H]([C@@H](C)O)NC(=O)[C@H](CCN)NC(=O)[C@H](CCN)NC(=O)[C@H](CC(C)C)NC(=O)[C@@H](CC(C)C)NC(=O)[C@H](CCN)NC1=O)[C@@H](C)O [colistin] | inactive: 1.08 |
| Cc1cccc(Nc2ccccc2C(=O)O)c1C [Mefenamic acid] + CCC(C)CCCC(=O)N[C@@H](CCN)C(=O)N[C@H](C(=O)N[C@@H](CCN)C(=O)N[C@H]1CCNC(=O)[C@H]([C@@H](C)O)NC(=O)[C@H](CCN)NC(=O)[C@H](CCN)NC(=O)[C@H](CC(C)C)NC(=O)[C@@H](CC(C)C)NC(=O)[C@H](CCN)NC1=O)[C@@H](C)O [colistin] | inactive: 1.05 |
| C[C@H]1[C@H](OC(=O)CCC(=O)O)O[C@@H]2O[C@@]3(C)CC[C@H]4[C@H](C)CC[C@@H]1[C@@]24OO3 [Artesunate] + CCC(C)CCCC(=O)N[C@@H](CCN)C(=O)N[C@H](C(=O)N[C@@H](CCN)C(=O)N[C@H]1CCNC(=O)[C@H]([C@@H](C)O)NC(=O)[C@H](CCN)NC(=O)[C@H](CCN)NC(=O)[C@H](CC(C)C)NC(=O)[C@@H](CC(C)C)NC(=O)[C@H](CCN)NC1=O)[C@@H](C)O [colistin] | inactive: 0.575 |

As entered above:
OD600, CCC(=O)O[C@]1(C(=O)CCl)[C@@H](C)C[C@H]2[C@@H]3CCC4=CC(=O)C=C[C@]4(C)[C@@]3(F)[C@@H](O)C[C@@]21C [Clobetasol propionate] + CCC(C)CCCC(=O)N[C@@H](CCN)C(=O)N[C@H](C(=O)N[C@@H](CCN)C(=O)N[C@H]1CCNC(=O)[C@H]([C@@H](C)O)NC(=O)[C@H](CCN)NC(=O)[C@H](CCN)NC(=O)[C@H](CC(C)C)NC(=O)[C@@H](CC(C)C)NC(=O)[C@H](CCN)NC1=O)[C@@H](C)O [colistin] is entered as inactive: 1.08
OD600, C[C@H]1[C@H](OC(=O)CCC(=O)O)O[C@@H]2O[C@@]3(C)CC[C@H]4[C@H](C)CC[C@@H]1[C@@]24OO3 [Artesunate] + CCC(C)CCCC(=O)N[C@@H](CCN)C(=O)N[C@H](C(=O)N[C@@H](CCN)C(=O)N[C@H]1CCNC(=O)[C@H]([C@@H](C)O)NC(=O)[C@H](CCN)NC(=O)[C@H](CCN)NC(=O)[C@H](CC(C)C)NC(=O)[C@@H](CC(C)C)NC(=O)[C@H](CCN)NC1=O)[C@@H](C)O [colistin] is entered as inactive: 0.575
